Measurements as given in article PMC4992866.
No constants are given. Whether binding was seen depends on the method and setting. In cells and extracts the contact can be indirect. Some entries that bind do so weakly or less than the wild type. Tags and fused reporters may be left off the sequences shown.

T1: Venus^N173-RAPTOR1B (Arabidopsis thaliana) (UniProt Q93YQ1)
T1 sequence: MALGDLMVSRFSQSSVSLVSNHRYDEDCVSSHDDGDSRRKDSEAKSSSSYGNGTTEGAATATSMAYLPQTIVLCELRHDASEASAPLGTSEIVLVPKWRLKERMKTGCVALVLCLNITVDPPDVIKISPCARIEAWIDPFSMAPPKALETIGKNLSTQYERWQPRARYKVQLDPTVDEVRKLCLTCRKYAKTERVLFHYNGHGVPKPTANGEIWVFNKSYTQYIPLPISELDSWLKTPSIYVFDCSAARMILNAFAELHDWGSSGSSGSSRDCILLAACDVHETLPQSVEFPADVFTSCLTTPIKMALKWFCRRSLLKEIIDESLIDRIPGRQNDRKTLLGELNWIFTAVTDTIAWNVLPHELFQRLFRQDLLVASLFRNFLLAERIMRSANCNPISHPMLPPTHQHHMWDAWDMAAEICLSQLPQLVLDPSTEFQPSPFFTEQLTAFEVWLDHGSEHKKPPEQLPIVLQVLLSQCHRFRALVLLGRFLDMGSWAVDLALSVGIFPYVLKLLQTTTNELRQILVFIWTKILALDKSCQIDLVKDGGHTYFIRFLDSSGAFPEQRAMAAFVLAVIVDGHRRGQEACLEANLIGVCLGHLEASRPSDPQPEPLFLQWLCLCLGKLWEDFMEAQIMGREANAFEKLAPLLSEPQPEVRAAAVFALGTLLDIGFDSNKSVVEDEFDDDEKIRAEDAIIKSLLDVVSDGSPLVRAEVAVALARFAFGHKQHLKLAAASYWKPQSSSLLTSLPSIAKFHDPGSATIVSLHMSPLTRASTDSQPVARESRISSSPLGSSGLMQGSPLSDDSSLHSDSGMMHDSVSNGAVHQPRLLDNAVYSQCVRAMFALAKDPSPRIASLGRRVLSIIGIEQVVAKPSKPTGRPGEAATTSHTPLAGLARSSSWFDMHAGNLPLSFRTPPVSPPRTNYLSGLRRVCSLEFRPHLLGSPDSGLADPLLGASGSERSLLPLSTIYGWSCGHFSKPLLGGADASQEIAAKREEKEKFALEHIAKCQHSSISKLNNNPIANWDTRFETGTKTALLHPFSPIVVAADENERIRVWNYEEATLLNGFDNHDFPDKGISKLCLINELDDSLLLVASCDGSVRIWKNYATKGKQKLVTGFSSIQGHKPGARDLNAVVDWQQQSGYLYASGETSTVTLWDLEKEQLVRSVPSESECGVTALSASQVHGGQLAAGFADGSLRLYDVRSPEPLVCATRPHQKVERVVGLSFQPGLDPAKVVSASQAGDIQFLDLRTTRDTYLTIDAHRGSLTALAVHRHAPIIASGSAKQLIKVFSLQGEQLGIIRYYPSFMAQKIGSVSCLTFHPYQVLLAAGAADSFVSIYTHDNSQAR


Target: T1, Venus^N173-RAPTOR1B (Arabidopsis thaliana)
Assay: split reporter; BiFC with split Venus (VENUS^N173 on the bait, VENUS^C155 on the prey); N. benthamiana leaves transiently co-transformed by Agrobacterium-infiltration; confocal laser scanning microscopy 48 h after infiltration; same microscope settings for all samples

binding	Binder
no binding	cytosolic fructose-1,6-bisphosphatase (FBPase) fused to VENUS^C155 (enzyme, UniProt Q9MA79 1-341) MDHAADAHRTDLMTITRFVLNEQSKYPESRGDFTILLSHIVLGCKFVCSAVNKAGLAKLIGLAGETNIQGEEQKKLDVLSNDVFVNALVSSGRTSVLVSEEDEEATFVEPSKRGKYCVVFDPLDGSSNIDCGVSIGTIFGIYTLDHTDEPTTADVLKPGNEMVAAGYCMYGSSCMLVLSTGTGVHGFTLDPSLGEFILTHPDIKIPNKGNIYSVNEGNAQNWDGPTTKYVEKCKFPKDGSPAKSLRYVGSMVADVHRTLLYGGIFLYPADKKSPNGKLRVLYEVFPMSFLMEQAGGQAFTGKKRALDLVPEKIHERSPIFLGSYDDVEEIKALYAEEEKKN
binds	SnRK1α1-Venus^C155 (protein, UniProt Q38997 1-512) MDGSGTGSRSGVESILPNYKLGRTLGIGSFGRVKIAEHALTGHKVAIKILNRRKIKNMEMEEKVRREIKILRLFMHPHIIRLYEVIETPTDIYLVMEYVNSGELFDYIVEKGRLQEDEARNFFQQIISGVEYCHRNMVVHRDLKPENLLLDSKCNVKIADFGLSNIMRDGHFLKTSCGSPNYAAPEVISGKLYAGPEVDVWSCGVILYALLCGTLPFDDENIPNLFKKIKGGIYTLPSHLSPGARDLIPRMLVVDPMKRVTIPEIRQHPWFQAHLPRYLAVPPPDTVQQAKKIDEEILQEVINMGFDRNHLIESLRNRTQNDGTVTYYLILDNRFRASSGYLGAEFQETMEGTPRMHPAESVASPVSHRLPGLMEYQGVGLRSQYPVERKWALGLQSRAHPREIMTEVLKALQDLNVCWKKIGHYNMKCRWVPNSSADGMLSNSMHDNNYFGDESSIIENEAAVKSPNVVKFEIQLYKTRDDKYLLDLQRVQGPQFLFLDLCAAFLAQLRVL
